Laboratory results as given in PMC12670160, “A drug-repurposing screen of FDA- and EMA-approved drugs identifies two NF-κB inhibitors active against eumycetoma” (Journal of Antimicrobial Chemotherapy, 2025).
Counter-ions that a name gives are not always drawn. Out of some 5,300 compounds screened, about 130 (2.5%) showed an effect of 50% or more. Some of the results follow.

The compounds below were run on M. mycetomatis strain mm55. Details: primary screen, metabolic activity vs growth control; 96 h, 2 µM; inhibitor.

Row | SMILES | % viability [%]
1 | COCCOc1cnc2ccn([C@H](C)c3nnc4c(F)cc(-c5cnn(C)c5)cn34)c(=O)c2c1 [ONC0001822, amg337] | 106.7
2 | CC(CCC(=O)O)[C@H]1CCC2C3C(=O)C[C@@H]4CC(=O)CC[C@]4(C)C3CC(=O)[C@@]21C (stereo partly drawn) [ONC0003216, dehydrocholic acid] | 99.22
3 | CC(C)(O)C(Cl)(Cl)Cl [ONC0000494, chlorobutanol] | 67.65
4 | COc1ccc2c(C)nc(Nc3nc(C)c(C)c(=O)[nH]3)nc2c1 [ONC0002297, madrasin] | 81.69
5 | Cl/C=C\C[N+]12CN3CN(CN(C3)C1)C2 [ONC0003842, 1z3chloroallyl1357tetraazaadamantan 1ium chloride] | 80.34
6 | O=C(NCC1(N2CCN(c3ccccc3)CC2)CCOCC1)c1cccnc1Sc1ccccc1 [ONC0003162, jnj47965567] | 82.91
7 | COc1cccc([C@@H](C)NCCCc2ccccc2Cl)c1 [ONC0003833, tecalcet] | 70.66
8 | CCn1c2ccccc2c2cc(Nc3ccnc(NCCCN4CCOCC4)n3)ccc21 [ONC0005118, ehop016] | 82.01
9 | N#C/C(=C\c1ccc(O)cc1)C(=O)O [ONC0000235, chc] | 62.15
10 | OCc1ccc(CO)o1 [ONC0001870, 25furandimethanol] | 66.12
11 | CC1(C)S[C@@H]2[C@H](NC(=O)[C@H](NC(=O)N3CCNC3=O)c3ccccc3)C(=O)N2[C@H]1C(=O)O [ONC0003154, azlocillin sodium] | 67.97
12 | Nc1nc2c(c(=O)[nH]1)C[C@@H](CCc1ccc(C(=O)N[C@@H](CCC(=O)O)C(=O)O)cc1)CN2 [ONC0005590, lometrexol] | 76.56
13 | CC(C)c1ccc2oc3nc(N)c(C(=O)O)cc3c(=O)c2c1 [ONC0000362, amlexanox] | 63.62
14 | NC(=O)c1cc[n+](CC2=C(C(=O)O)N3C(=O)[C@@H](NC(=O)[C@@H](c4ccccc4)S(=O)(=O)[O-])[C@H]3SC2)cc1 [ONC0005581, cefsulodin sodium] | 106.3
15 | CC(CCc1ccccc1)NCC(O)c1ccc(O)c(C(N)=O)c1 (stereo not drawn) [ONC0002852, labetalol hydrochloride] | 82.54
16 | NC1(C(=O)N[C@@H](CCO)c2ccc(Cl)cc2)CCN(c2ncnc3[nH]ccc23)CC1 [ONC0005194, azd5363] | 104.8
17 | CCOC(=O)[C@H](CCc1ccccc1)N[C@@H](C)C(=O)N1Cc2ccccc2C[C@H]1C(=O)O [ONC0003165, quinapril] | 61.99
18 | COc1ccc(C(Cl)=C(c2ccc(OC)cc2)c2ccc(OC)cc2)cc1 [ONC0002927, chlorotrianisene] | 61.69
19 | O=c1[nH]c2cc(C(F)(F)F)c(N3CCOCC3)cc2n(CP(=O)(O)O)c1=O [ONC0003552, zk200775] | 117.2
20 | O=C(O)c1cccnc1Nc1cccc(C(F)(F)F)c1 [ONC0000560, niflumic acid] | 90.46

Ordered by length of the SMILES (ascending): 3 of the compounds above.
Row | SMILES | % viability [%]
9 | N#C/C(=C\c1ccc(O)cc1)C(=O)O [ONC0000235, chc] | 62.15
2 | CC(CCC(=O)O)[C@H]1CCC2C3C(=O)C[C@@H]4CC(=O)CC[C@]4(C)C3CC(=O)[C@@]21C (stereo partly drawn) [ONC0003216, dehydrocholic acid] | 99.22
14 | NC(=O)c1cc[n+](CC2=C(C(=O)O)N3C(=O)[C@@H](NC(=O)[C@@H](c4ccccc4)S(=O)(=O)[O-])[C@H]3SC2)cc1 [ONC0005581, cefsulodin sodium] | 106.3

(continued)

Row | SMILES | % viability [%]
21 | CC1CC(OC(=O)C(O)c2ccccc2)CC(C)(C)C1 (stereo not drawn) [ONC0003926, cyclandelate] | 70.81
22 | O=C(N/N=C/c1ccccc1O)c1ccccc1O [ONC0000023, scs] | 61.1
23 | O=c1ccc2ccc(OCCCCN3CCN(c4cccc5sccc45)CC3)cc2[nH]1 [ONC0001141, brexpiprazole] | 76.07
24 | CC(C)Cc1sc(N)nc1-c1ccc(P(=O)(O)O)o1 [ONC0001018, mb05032] | 100.1
25 | C[N+](C)(C)CCCCCC[N+](C)(C)C [ONC0002829, hexamethonium bromide] | 132.4
26 | CCCCCCCCc1ccc(-c2ccc(C(=O)O)cc2)cc1 [ONC0003742, ac55649] | 138.2
27 | c1cc(Cc2cnc[nH]2)ccn1 [ONC0003600, immethridine] | 134.1
28 | CN(C)/N=N/c1[nH]cnc1C(N)=O [ONC0000348, dacarbazine] | 78.71
29 | CN1C[C@@H](NS(=O)(=O)N(C)C)C[C@@H]2c3cccc4c3c(cn4C)C[C@H]21 [ONC0001892, mesulerginehcl] | 102.3
30 | Cc1onc(-c2c(Cl)cccc2Cl)c1C(=O)N[C@@H]1C(=O)N2[C@@H]1SC(C)(C)[C@@H]2C(=O)O [ONC0000544, dicloxacillin sodium] | 69.15
31 | Cc1cc(NC(=O)Nc2ccc(N(C)C)cc2)c2cc(F)cc(F)c2n1 [ONC0004407, sb408124] | 128.6
32 | OC[C@H]1O[C@@H](n2cnc3c2NC=NC[C@H]3O)C[C@@H]1O [ONC0005553, pentostatin] | 64.87
33 | CN1C(C)(C)CCCC1(C)C [ONC0002861, pempidine tartrate] | 118.7
34 | Cn1cc(-c2ccc3ncc(Cc4ccc5ncccc5c4)n3n2)cn1 [ONC0005064, nvpbvu972] | 95.46
35 | COc1cnc(-c2ccc(Cn3c(CC(C)(C)C(=O)O)c(SC(C)(C)C)c4cc(OC[C@@H]5Cc6ccccc6N5C(C)=O)ccc43)cc2)nc1 [ONC0000711, am679] | 69.68
36 | Nc1ncc2c(n1)CC(c1ccco1)CC2=O (stereo not drawn) [ONC0000078, nky80] | 78.92
37 | O=[N+]([O-])c1cc([N+](=O)[O-])c(/C=C/c2ccc(Cl)c(Cl)c2)cc1/C=C/c1ccc(Cl)c(Cl)c1 [ONC0003567, nsc636819] | 111.7
38 | O=c1cc(N2CCOCC2)oc2c(-c3cccc4c3sc3ccccc34)cccc12 [ONC0004358, nu7441ku57788] | 136.2
39 | COc1ccc([C@@H]2CC(=O)c3c(O)cc(O[C@@H]4O[C@H](CO[C@@H]5O[C@@H](C)[C@H](O)[C@@H](O)[C@H]5O)[C@@H](O)[C@H](O)[C@H]4O)cc3O2)cc1O [ONC0004994, hesperidin] | 67.6
40 | CO[C@H](C(=O)[C@@H](O)[C@@H](C)O)[C@@H]1Cc2cc3cc(O[C@H]4C[C@@H](O[C@H]5C[C@@H](O)[C@H](O)[C@@H](C)O5)[C@@H](O)[C@@H](C)O4)c(C)c(O)c3c(O)c2C(=O)[C@H]1O[C@H]1C[C@@H](O[C@H]2C[C@@H](O[C@H]3C[C@](C)(O)[C@H](O)[C@@H](C)O3)[C@H](O)[C@@H](C)O2)[C@H](O)[C@@H](C)O1 [ONC0003516, plicamycin mithramycin] | 50.92

Row | SMILES | % viability [%]
41 | COc1cccc(-c2cc(NCc3ccc4c(c3)OCO4)nc(N)n2)c1 [ONC0001916, bml284] | 93.59
42 | CCN(CC)CCCCNc1ncc2cc(-c3c(Cl)cccc3Cl)c(NC(=O)NC(C)(C)C)nc2n1 [ONC0002581, pd161570] | 80.33
43 | CC(=O)NC1=NN(C(C)=O)C(C)(c2ccccc2)S1 (stereo not drawn) [ONC0002658, k858] | 49.67
44 | Cc1ccc(-c2csc(NC(=O)c3ccccc3)n2)c(C)c1 [ONC0000101, inh1] | 105
45 | CC(=O)O[C@]1(C(C)=O)CC[C@H]2[C@@H]3C[C@H](C)C4=CC(=O)C=C[C@]4(C)[C@@]3(F)[C@@H](O)C[C@@]21C [ONC0004573, fluorometholone acetate] | 70.28
46 | O=C[C@H](O)[C@@H](O)[C@H](O)CO [ONC0002758, xylose] | 82.95
47 | CCCC(CCC)C(=O)NCC(N)=O [ONC0003729, valrocemide] | 110.7
48 | O=C(O)COc1ccc(OCCNC[C@H](O)COc2ccccc2)cc1 [ONC0002275] | 78.74
49 | NS(=O)(=O)c1cc(C(=O)O)cc(N2CCCC2)c1Oc1ccccc1 [ONC0002921, piretanide] | 95.29
50 | CN(C)CCCN1c2ccccc2Sc2ccccc21 [ONC0000468, promazine hydrochloride] | 105.3
51 | O=C(OCCO)c1ccccc1O [ONC0002561, 2hydroxyethyl salicylate] | 94.22
52 | NC(Cc1ccc(Cl)cc1)C(=O)O (stereo not drawn) [ONC0004058, fenclonine] | 115.9
53 | Cc1cc(C(C)(C)C)c(O)c(C)c1CC1=NCCN1 [ONC0000589, oxymetazoline hydrochloride] | 69.04
54 | CSc1ccc2c(c1)C(N1CCN(C)CC1)Cc1ccccc1S2 (stereo not drawn) [ONC0002377, metitepine mesylate] | 106.2
55 | CC(C)(C)C(=O)Oc1ccc(S(=O)(=O)Nc2ccccc2C(=O)NCC(=O)O)cc1 [ONC0001258, sivelestat sodium tetrahydrate] | 72.66
56 | CC(C(=O)O)c1ccc2c(c1)Cc1cccnc1O2 (stereo not drawn) [ONC0004849, pranoprofen] | 94.56
57 | C[C@H]1COc2c(C3(N)CC3)c(F)cc3c(=O)c(C(=O)O)cn1c23 [ONC0004103, pazufloxacin mesylate] | 108
58 | COc1ccc([C@]2(O)CC[C@H](N3CC[C@@H](NC(=O)CNC(=O)c4cccc(C(F)(F)F)c4)C3)CC2)cn1 [ONC0003647, incb 3284] | 73.08
59 | C[N+]1(C)[C@@H]2C[C@@H](OC(=O)C(O)(c3cccs3)c3cccs3)C[C@H]1[C@@H]1O[C@@H]12 [ONC0004964, tiotropium bromide hydrate] | 92.43
60 | CN[C@H](C(=O)N[C@H](C(=O)N(C)[C@H](/C=C(\C)C(=O)O)C(C)C)C(C)(C)C)C(C)(C)c1ccccc1 [ONC0001108, taltobulin trifluoroacetate] | 64.78
